Several values for one entry are separate records, joined by “and”; a condition that tells them apart may be missing. Equal values may be shown once. Some of the results follow. The main result of the screen is listed elsewhere. These columns were measured beside it and carry no call. Most of these compounds were active or inconclusive in the main read-out, so they are no random draw. The note in brackets gives the kind of curve behind each potency; many fits are weak.
Test: qHTS Assay to Find Inhibitors of Chronic Active B-Cell Receptor Signaling
Conditions: ABC-DLBCL IkBa-CBG/CBR reporter, luminescence ratio (green luciferase fused to IkBa over red control in TMD8 lymphoma cells), 4 h
Procedure, shortened: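 Compounds up to 46 uM were incubated four hours with TMD8 cells whose green CBG68 luciferase is fused to IkappaBalpha; red CBR luminescence normalised the signal, and concentration-effect curves were fitted to fusion, red and ratio data.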

[1] = measured here: CBR red luminescence, cell number

SMILES | AC50 [1] | AC50 (measured here: IkBa-CBG green luminescence)
O=C(CSc1cccc[n+]1[O-])C12CC3CC(CC(C3)C1)C2 | 22.4 µM [falling, single point] | 35.5 µM [rising, partial curve, poor fit]
COc1ccccc1NC(=O)CN1CCSc2ccccc21 | 6.31 µM [falling, full curve] | 
CCOc1ccccc1N/C(=N/c1nc(C)cc(C)n1)NC(=O)Nc1ccc(Cl)c(Cl)c1 | 11.6 µM [rising, single point] | 
Cn1cccc1C(=O)NC(=O)COC(=O)c1cc(S(=O)(=O)N2CCCCC2)ccc1Cl | 1.12 µM [falling, full curve] | 
COc1ccccc1CNS(=O)(=O)c1c(C)nc2sccn2c1=O | 35.5 µM [rising, single point] | 
CCCCC(=O)Nc1ncc([N+](=O)[O-])s1 | 17.8 µM [falling, single point] | 
O=C1C=C(N(CCO)Cc2ccccc2)c2ccccc2C1=O | 35.5 µM [falling, single point] | 
CCc1cc(=O)oc2c(CN3CCN(C)CC3)c(O)c(Cl)cc12 | 0.92 µM [rising, full curve, poor fit] | 
CC(=O)Nc1ccc(C(=O)OCCC(C)C)cc1 | 2.06 µM [rising, full curve, poor fit] | 
O=[N+]([O-])c1ccc(COc2ccc(-c3[nH]ncc3-c3ccccc3)c(O)c2)cc1 | 29.1 µM [rising, single point] | 
O=C1NC[C@@H](Cc2cccc3ccccc23)N(CC2CCCCC2)C1=O | 8.91 µM [rising, partial curve] | 
COCCN1C(=O)N(c2cccc(OC)c2)C(=O)C1CC(=O)Nc1ccc(Cl)cc1 (stereo unspecified) | 10 µM [rising, partial curve, poor fit] | 
COC(=O)c1ccc(CN(c2ccccc2OC)S(=O)(=O)c2cccs2)o1 | 3.66 µM [falling, full curve, poor fit] | 
O=C(Nc1cccc2cccc(NC(=O)c3ccco3)c12)c1ccco1 | 7.31 µM [falling, partial curve, poor fit] | 
Cc1ccc(/C=C2\SC(=O)N(CCC(=O)N3CCN(C)CC3)C2=O)cc1 | 10 µM [falling, partial curve] | 
Cc1ccc(S(=O)(=O)Nc2c(C)n(C)n(-c3ccccc3)c2=O)cc1 | 0.411 µM [rising, full curve, poor fit] | 
O=C1NCCN/C1=C\C(=O)c1ccc(Br)cc1 | 11.2 µM [falling, partial curve, poor fit] | 
COc1ccc(COC(=O)C2=C(C)NC(=O)NC2c2ccc(F)cc2)cc1 (stereo unspecified) | 11.2 µM [falling, single point] | 
CNC(=O)C1=NCCCc2cc(OC)c(OC)cc21 | 29.1 µM [rising, single point] | 
Cc1cc(C(=O)Nc2nc(C)c(C(=O)N(C)C)s2)ccc1[N+](=O)[O-] | 6.51 µM [rising, partial curve] | 

SMILES | AC50 [1] | AC50 (measured here: IkBa-CBG green luminescence)
CCOC(=O)c1c(NC(=O)/C=C/C(=O)O)sc(C)c1-c1ccc(F)cc1 | 35.5 µM [falling, partial curve, poor fit] | 
O=C(NCCc1c[nH]c2ccccc12)C(=O)NCC1OCCN1S(=O)(=O)c1ccc(F)cc1 (stereo unspecified) | 32.6 µM [rising, partial curve, poor fit] | 
CCCNC(=O)c1ccccc1NC(=O)Nc1ccccc1C | 29.1 µM [rising, single point] | 
CC1(C(=O)OCc2cc(=O)n3cc(Br)ccc3n2)CC1(Cl)Cl (stereo unspecified) | 1.26 µM [rising, full curve, poor fit] | 
CC(=O)c1cccc(NC(=O)Nc2cccs2)c1 | 5.8 µM [rising, single point] | 
O=C1CCC2S/C(=C/Nc3ccc(C(F)(F)F)cc3)C(=O)N12 (stereo unspecified) | 12.6 µM [falling, partial curve] | 
C=C[C@@H]1c2ccccc2N(S(=O)(=O)c2ccc(C)cc2)[C@H](c2ccc(C(F)(F)F)cc2)C1(C#N)C#N | 18.4 µM [rising, single point] | 
COc1ccc(N2CS(=O)(=O)/C(=C/N(C)C)C2=O)cc1 | 31.6 µM [rising, single point] | 
CC(C)(C)c1nc(NCCO)c2nnn(Cc3ccccc3)c2n1 | 14.1 µM [rising, partial curve, poor fit] | 
CCOC(=O)c1ccc(Oc2nc(N(C)C)nc(N3CCOCC3)n2)cc1 | 35.5 µM [rising, single point] | 
CCOC(=O)c1ccccc1NC(=O)c1cn(-c2ccc(OC)cc2)c(=O)c2ccccc12 | 0.146 µM [rising, full curve, poor fit] | 
N/C(=N\OC(=O)c1ccc2c(c1)OCO2)c1ccncc1 | 10 µM [falling, partial curve] | 
CCCN(CCC)CCCNC(=S)Nc1ccc2nc(N3CCCC3)cc(C)c2c1 | 2.82 µM [falling, partial curve, poor fit] | 
Cc1[nH]n(-c2ccccc2)c(=O)c1C=Nc1cccc(F)c1 | 0.501 µM [rising, partial curve, poor fit] | 
Cc1cccc2nc(-c3ccco3)oc(=O)c12 | 2.82 µM [falling, partial curve, poor fit] | 
Cn1nccc1C(=O)Oc1cccc(/C=N/NC(=O)c2ccccc2O)c1 | 1 µM [falling, full curve, poor fit] | 
CC1SC(C)C(=O)N(CC(=O)NCc2ccc(F)cc2)C1=O (stereo unspecified) | 25.9 µM [rising, single point] | 
COc1ccc(Nc2nc(C)c3ccccc3n2)cc1 | 0.82 µM [rising, full curve] | 
NC(=O)C1CCN(c2nc(-c3cccc(Cl)c3)cs2)CC1 | 25.9 µM [rising, single point] and 14.6 µM [rising, partial curve, poor fit] | 
Cc1ccc(C)c(N(CC(=O)NC2CCCC2)C(=O)c2oc(C(C)(C)C)cc2C)c1 | 20.6 µM [falling, partial curve, poor fit] | 

Some of the entries above, set out differently.
CCCNC(=O)c1ccccc1NC(=O)Nc1ccccc1C
  AC50 [1]: 29.1 µM [rising, single point]
CC1(C(=O)OCc2cc(=O)n3cc(Br)ccc3n2)CC1(Cl)Cl (stereo unspecified)
  AC50 [1]: 1.26 µM [rising, full curve, poor fit]
CC(=O)c1cccc(NC(=O)Nc2cccs2)c1
  AC50 [1]: 5.8 µM [rising, single point]
